Measurements from paper PMC3554631, “Structural Basis of a Histone H3 Lysine 4 Demethylase Required for Stem Elongation in Rice” (PLoS Genetics, 2013).
Results are given in words; binding and its absence hold for the method and conditions named.

Chains of the proteins cited; added tags and fusions are not shown. Residues count along the entry.
UniProt Q53WJ1, residues 139-498: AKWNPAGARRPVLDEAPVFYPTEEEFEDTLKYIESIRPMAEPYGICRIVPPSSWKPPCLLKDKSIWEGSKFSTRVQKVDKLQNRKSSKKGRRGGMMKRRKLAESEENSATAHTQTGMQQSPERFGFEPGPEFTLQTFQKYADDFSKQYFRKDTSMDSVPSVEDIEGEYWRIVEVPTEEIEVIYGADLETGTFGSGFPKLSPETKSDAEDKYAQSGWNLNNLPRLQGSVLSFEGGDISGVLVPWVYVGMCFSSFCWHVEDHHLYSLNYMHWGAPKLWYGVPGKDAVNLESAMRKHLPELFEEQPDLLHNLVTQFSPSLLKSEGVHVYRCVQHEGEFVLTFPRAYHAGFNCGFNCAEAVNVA

Target: c-JMJ703, catalytic core domain of JMJ703 (amino acids 139 to 498) (rice) (UniProt Q53WJ1)
Assay: SEC; c-JMJ703 (20 mg/mL) on Superdex 75 10/300 GL in 20 mM HEPES pH 7.5, 150 mM NaCl; retention volume 11.5 mL; both purified

binding: no binding (tested: 20 mg/mL)
Substance: c-JMJ703, catalytic core domain of JMJ703 (amino acids 139 to 498) (from UniProt Q53WJ1 139-498) (domain or fragment)
